The values that follow come from publication PMC10431626.

Protein sequences, listed by entry. Tags and fused reporters are not part of them. Lines headed by an entry give the natural chain unless they say otherwise; changes in a name come on top.
UniProt Q15717: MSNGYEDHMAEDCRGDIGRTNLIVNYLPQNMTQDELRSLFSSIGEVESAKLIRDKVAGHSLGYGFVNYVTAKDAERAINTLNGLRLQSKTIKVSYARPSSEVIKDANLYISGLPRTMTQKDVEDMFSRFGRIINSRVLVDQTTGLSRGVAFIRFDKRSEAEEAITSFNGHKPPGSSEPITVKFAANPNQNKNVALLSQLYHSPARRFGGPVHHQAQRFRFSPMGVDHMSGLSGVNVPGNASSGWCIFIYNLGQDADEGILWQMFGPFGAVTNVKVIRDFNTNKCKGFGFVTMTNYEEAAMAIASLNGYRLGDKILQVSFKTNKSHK
UniProt Q05655: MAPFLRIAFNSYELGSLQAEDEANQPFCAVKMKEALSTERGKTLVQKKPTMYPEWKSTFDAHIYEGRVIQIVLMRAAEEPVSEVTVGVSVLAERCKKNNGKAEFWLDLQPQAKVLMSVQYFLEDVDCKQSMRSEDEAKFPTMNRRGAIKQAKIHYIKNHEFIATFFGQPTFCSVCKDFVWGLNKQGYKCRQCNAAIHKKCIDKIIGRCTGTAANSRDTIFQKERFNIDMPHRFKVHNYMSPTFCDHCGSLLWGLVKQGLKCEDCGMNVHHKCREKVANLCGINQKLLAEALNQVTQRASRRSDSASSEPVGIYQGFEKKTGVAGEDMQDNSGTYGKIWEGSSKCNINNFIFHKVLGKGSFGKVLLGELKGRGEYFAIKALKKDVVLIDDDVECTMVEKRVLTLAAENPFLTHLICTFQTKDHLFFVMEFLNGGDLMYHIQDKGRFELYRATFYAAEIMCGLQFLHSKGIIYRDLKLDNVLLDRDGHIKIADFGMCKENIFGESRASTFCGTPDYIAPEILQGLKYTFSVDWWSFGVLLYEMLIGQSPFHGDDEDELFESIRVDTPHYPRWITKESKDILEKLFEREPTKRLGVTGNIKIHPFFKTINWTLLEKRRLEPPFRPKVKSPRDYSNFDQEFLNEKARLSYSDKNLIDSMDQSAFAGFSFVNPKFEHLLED

In test [1] the target is human antigen R (HuR) (human (endogenous in Huh7.5)) (UniProt Q15717). Kind of test: co-IP; endogenous proteins; anti-HuR or anti-PKC-δ antibody on Protein G Sepharose, Huh7.5 lysate in polysome lysis buffer (100 mM KCl, 5 mM MgCl2, 10 mM HEPES pH 7.0, 0.5% NP-40, 1 mM DTT, RNasin), 4°C; mock or HCV-JFH1 virus infected cells, 48h; Western blot. In general terms: In western blotting, separated proteins are transferred to a membrane and probed.

For test [2], the target named is protein kinase C (PKC)-δ (human (endogenous in Huh7.5)) (UniProt Q05655). The test is described as above.

No constants are given. Whether binding was seen depends on the method and setting. In cells and extracts the contact can be indirect. Some binding calls cover weakened binding; strength is not graded here.

For “protein kinase C (PKC)-δ (from UniProt Q05655 1-676) (enzyme)”, in test [1], the binding entry is on record as “binds”.
Regarding “human antigen R (HuR) (from UniProt Q15717 1-326)”, the binding entry in test [2] is “binds”.
